The values below come from US7431793B2, “Process for bonding substrates or parts and system including cyanoacrylate adhesive and accelerator composition” (Loctite (R&D) Limited, priority 2001, dated 2008).

Series [1] in a line: Post Spray test: activator sprayed onto a 10 ul drop of 401 adhesive on a substrate (skin time, cure through volume time). To be noted: for CTV time: post spray, Table 1; for Post Spray: pyridine N-oxide derivative 1.0% in IPA; for CTV: pyridine N-oxides, Table 3.
A short description of series [2]: Pre Spray test: activator sprayed onto substrate before application of a 10 ul drop of 401 adhesive. The note with it: for Pre-CTV / Pre-Skin: 1% activator; for Pre Spray: 1.0% in IPA, cardboard substrate.
Setting [3] is: 1.0% activator in heptane, 10 ul drop of 401 adhesive, cardboard substrate.
Where [4] appears, read: On Part Time Initial, 10 ul drop of 401 adhesive.
The mark [5] stands for this setting: 0.01% activator in heptane, 10 ul drop of 401 adhesive, cardboard substrate.
Setting [6] is: 0.1% activator in heptane, 10 ul drop of 401 adhesive, cardboard substrate.
Setting [7] is: 10 ul drop of 401 adhesive, cardboard substrate.
The mark [8] stands for this setting: 2,6 disubstituted pyridines, 1% in IPA, 401 adhesive.

Where “and” joins values, the source holds several entries; their conditions need not be identical. Identical values can stand only once.

On to `[O-][n+]1ccccc1` [Pyridine N Oxide, Pyridine N oxide, reference compound], for which the “reactivity as initiator / post spray behaviour, in words” value in series [1] is “very slow initiator”.
Turning to 2 Methyl 3(5 or 6) Ethoxy Pyrazine, in series [1] (setting [3]), the “Post CTV” value is reported as 7 s. Further, the “Post Skin” value in series [1] (setting [3]) is on record as “no skin”. Further, the Pre-CTV in series [2] (On Part Time 16 hours) worked out at 35 min; in series [2] (setting [4]), 7 min.
Take `Cc1cnccn1` [2-Methyl, 2-methyl pyrazine]: the “Post CTV” value in series [1] (setting [5]) was 180 s; in series [1] (setting [6]) it was 80 s; in series [1] (setting [3]), 60 to 180 s. Also, the “Post Skin” value is on record as “no skin” in series [1] (setting [5]), 5 s in series [1] (setting [6]) and 2 s in series [1] (setting [3]). The compound also displayed a CTV time in series [1] of 1 to 3 min.
As for `Cc1nc(C)c(C)nc1C` [Tetra methyl], in series [1] (setting [3]), the “Post CTV” value was determined as 180 s and the “Post Skin” value is on record as “no skin”. In series [2] (On Part Time Initial), this compound yielded a Pre-Skin of 5 s. Also, the Pre-CTV in series [2] (setting [4]) was 4 to 5 min.
Taken in the same sequence, the figures for `SCCc1cnccn1` [2-Ethane Thiol, 2-ethane thiol pyrazine] were 5 s, “Immediate”, 5 s and 8 min.
As to `Cc1cc[n+]([O-])cc1` [4-methyl, 4-methyl pyridine N-oxide], the “Post Spray” value in series [1] (setting [7]) was found to be 30 s. In series [1], this compound came in with a CTV of 30 s. Besides, the “Pre Spray” value worked out at 4 min in series [2] (On Part time 30 minutes, 10 ul drop of 401 adhesive); 7 min in series [2] (On Part time 16 hours, 10 ul drop of 401 adhesive); 4 min in series [2] (On Part time initial, 10 ul drop of 401 adhesive).
Take `c1ccncc1` [Pyridine, reference compound]: in series [1], the “reactivity as initiator / post spray behaviour, in words” value is on record as “only caused skinning”.
Regarding `Cc1ccc(N(C)C)cc1` [DMPT, N,N-dimethyl-p-toluidine, reference compound], the “Post CTV” value in series [1] (setting [3]) stood at 14 s. In addition, in series [1] (setting [3]), the “Post Skin” value is on record as “No skin”. For the same compound, the results for the Pre-CTV in series [2] (On Part Time 15 minutes), in series [2] (On Part Time 1 hour) and in series [2] (setting [4]) were 2.8 min, 7 min and 1 to 1.25 min, respectively. The Pre-Skin result in series [2] (On Part Time Initial) is “No skin”.
`Cc1cccc(CCCOCCO)n1` [MPPE, 2-(3-(6-methyl-2-pyridyl)-propoxy)ethanol]: the “Post CTV” value in series [1] (2,6 disubstituted pyridines, 1% in Heptane, 401 adhesive) amounted to 60 s.
As for `c1cnccn1` [Pyrazine, pyrazine], in series [1] (setting [3]), the “Post CTV” value was 10 s and the “Post Skin” value is recorded as “no skin”. In addition, the Pre-CTV in series [2] (setting [4]) was 7 min.
As for `Cc1cnc(C)cn1` [2,5-Dimethyl, 2,5-dimethyl pyrazine], in series [1] (setting [3]), the “Post CTV” value lay in the range of 10 to 15 s and the “Post Skin” value lay in the range of 2 to 4 s. Further, the Pre-Skin in series [2] (On Part Time Initial) was 60 s. Moreover, in series [2] (setting [4]), the Pre-CTV was 20 min.
For the compound `Cc1cncc(C)n1` [2,6-Dimethyl, 2,6-dimethyl pyrazine], the “Post CTV” value in series [1] (setting [5]) was 600 s; in series [1] (setting [6]), roughly 900 s; in series [1] (setting [3]), ~840 s and ~900 s. Besides, the “Post Skin” value in series [1] (setting [5]) was “no skin”; in series [1] (setting [6]), 5 s; in series [1] (setting [3]) it was “Immediate”. The compound also displayed a CTV time in series [1] of roughly 14 min. The compound further yielded a Pre-CTV in series [2] (setting [4]) of 8 to 10 min.
For the compound `Cc1cnc(C)c(C)n1` [2,3,5-Trimethyl], in series [1] (setting [3]), the “Post CTV” value came out at 10 s and the “Post Skin” value is reported as “no skin”. In addition, in series [2] (On Part Time Initial), the Pre-Skin result is listed as “no skin”. In addition, the Pre-CTV in series [2] (setting [4]) was 3 min.
Regarding `Cc1cc[n+]([O-])c(C)c1` [2,4-dimethyl, 2,4-dimethyl pyridine N-oxide], the “Post Spray” value in series [1] (setting [7]) is listed as 30 s. Further, the CTV in series [1] came to 30 s.
For `Cc1cccc(CO)n1` [MPM, 6-methyl-2-pyridine-methanol], the “Post CTV” value in series [1] (setting [8]) was 25 to 30 s.
In the case of `Cc1nccnc1C` [2,3-Dimethyl], the “Post CTV” value in series [1] (setting [3]) lay within 10 to 15 s. The “Post Skin” value in series [1] (setting [3]) lay within 2 to 4 s. The Pre-CTV in series [2] (On Part Time 30 minutes) was 9 min; in series [2] (On Part Time 1 hour), 12 min; in series [2] (On Part Time 16 hours), greater than 90 min; in series [2] (setting [4]) it was 3 min. The compound also returned a Pre-Skin in series [2] (On Part Time Initial) of 20 s.
In the case of `COc1nccnc1C` [2-methoxy 3-methyl, 2-methoxy, 3-methyl pyrazine], the “Post CTV” value in series [1] (setting [3]) was 6 s. Besides, in series [1] (setting [3]), the “Post Skin” value is on record as “no skin”. For the same compound, the Pre-CTV in series [2] (On Part Time 20 minutes) is 4 min; in series [2] (On Part Time 1 hour), 20 min; in series [2] (setting [4]) it was 2 min.
For `CCCc1nccnc1C` [2-methyl 3-n-propyl, 2-methyl 3-n-propyl pyrazine], the “Post CTV” value in series [1] (setting [3]) is 8 to 10 s. In series [1] (setting [3]), the “Post Skin” value was “no skin”. The Pre-CTV in series [2] (On Part Time 30 minutes) was 7 min; in series [2] (On Part Time 1 hour) it was 8 min; in series [2] (On Part Time 16 hours), 60 min; in series [2] (setting [4]), 2 to 3 min.
Consider `Cc1cccc(C)n1` [2,6 Lutidine, 2,6-dimethyl pyridine, reference compound], for which the “reactivity as initiator / post spray behaviour, in words” value in series [1] was “only caused skinning”. In addition, the “Post CTV” value in series [1] (setting [8]) is reported as greater than 300 s.
